Data source: PubChem BioAssay AID504804 (Drosophila RNAi Screening Center, 2011)
The screen tested about 19,000 reagents; below is an unselected part of those with a known target gene and a result. In the full data, 47 (0.25%) are marked active. 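Signals are raw, not normalised; exact z-scores behind calls not deposited; actives needed confirmation, so some wells reaching 2 SD are inactive.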 A number with no mark means an inactive call.

Screen: 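Fly genes whose loss lessens doxorubicin-driven cell death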 (primary screen)
Cell system: Drosophila Kc cells
Reagent: long dsRNA against Drosophila genes, 0.5 µg dsRNA per well
Timing: 96 h (48 h knock-down, then 48 h drug)
Treatment: doxorubicin 5 µg/ml for 48 h, added 48 h after dsRNA
Measurement: 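Luminescent ATP counts per replicate, not normalised, reflecting viable cells after 48 h dsRNA knock-down followed by 48 h of 5 µg/ml doxorubicin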
Scale: raw ATP luminescence: higher = more viable cells, protection from doxorubicin
Rule for the call: 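z-score of 2 or more over plate mean in both duplicates, retained only when retests and separate dsRNAs confirm the protection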

CG12069 [SID104194262] scored raw ATP luminescence, replicate 1 = 42570; raw ATP luminescence, replicate 2 = 33070. Silencing of CG34167 [SID104181317] resulted in: raw ATP luminescence, replicate 1 = 2.89e5; raw ATP luminescence, replicate 2 = 2.67e5. CG13933 [SID104188194] scored raw ATP luminescence, replicate 1 = 61737; raw ATP luminescence, replicate 2 = 48230. After knock-down of kud (kuduk) [SID104190878], the record shows raw ATP luminescence, replicate 1 = 42803; raw ATP luminescence, replicate 2 = 37070. With knock-down of Elovl7 (ELOVL fatty acid elongase 7) [SID104195244] the results were raw ATP luminescence, replicate 1 = 72997; raw ATP luminescence, replicate 2 = 49510. CG32512 [SID104200311] gave raw ATP luminescence, replicate 1 = 3.30e5; raw ATP luminescence, replicate 2 = 3.37e5.

For CG32512 [SID104200343], the values are raw ATP luminescence, replicate 1 = 2.65e5; raw ATP luminescence, replicate 2 = 2.50e5. Against lncRNA:CR32657 (long non-coding RNA:CR32657) [SID104199195], the entry reads raw ATP luminescence, replicate 1 = 3.14e5; raw ATP luminescence, replicate 2 = 2.88e5. Against Gyc88E (Guanylyl cyclase at 88E) [SID104195339] the deposit lists raw ATP luminescence, replicate 1 = 1.02e5; raw ATP luminescence, replicate 2 = 70110. CG14627 [SID104198422] showed raw ATP luminescence, replicate 1 = 44490; raw ATP luminescence, replicate 2 = 37370. CG4477 [SID104190217] gave raw ATP luminescence, replicate 1 = 64870; raw ATP luminescence, replicate 2 = 61203. Against kz (kurz) [SID104198578] the deposit lists raw ATP luminescence, replicate 1 = 70760; raw ATP luminescence, replicate 2 = 54050.

Depletion of Exo70 (Exocyst 70) [SID104190566] gave: raw ATP luminescence, replicate 1 = 58237; raw ATP luminescence, replicate 2 = 76783. Knock-down of CG3581 [SID104195291] gave: raw ATP luminescence, replicate 1 = 59520; raw ATP luminescence, replicate 2 = 85700. CG34462 [SID104190560] scored raw ATP luminescence, replicate 1 = 70913; raw ATP luminescence, replicate 2 = 60127. For CG14720 [SID104194734], the entry reads raw ATP luminescence, replicate 1 = 51633; raw ATP luminescence, replicate 2 = 66397. CG31898 [SID104180811] scored raw ATP luminescence, replicate 1 = 2.83e5; raw ATP luminescence, replicate 2 = 3.05e5. With knock-down of Eip74EF (Ecdysone-induced protein 74EF) [SID104190405] the results were raw ATP luminescence, replicate 1 = 14353; raw ATP luminescence, replicate 2 = 14693.

Eip74EF (Ecdysone-induced protein 74EF) [SID104190952] scored raw ATP luminescence, replicate 1 = 55677; raw ATP luminescence, replicate 2 = 52060.

Only “raw ATP luminescence, replicate 1”, for 3 of the entries above:
Elovl7 (ELOVL fatty acid elongase 7) [SID104195244]	72997
CG32512 [SID104200311]	3.30e5
CG32512 [SID104200343]	2.65e5
